Positions count from the first letter of the chain named. Results are given in words; binding and its absence hold for the method and conditions named.
T1: Mia40^SPC, core domain Mia40c (amino acids 284-403) with the first cysteine of the CPC motif changed to serine (S. cerevisiae) (UniProt P36046)
T1 sequence: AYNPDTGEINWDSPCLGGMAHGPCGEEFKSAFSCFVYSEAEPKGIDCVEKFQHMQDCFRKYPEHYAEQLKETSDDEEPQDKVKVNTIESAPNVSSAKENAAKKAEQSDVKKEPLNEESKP

T2: Mia40^CPS, core domain Mia40c (amino acids 284-403) with the second cysteine of the CPC motif changed to serine (S. cerevisiae) (UniProt P36046)
T2 sequence: T1 sequence with S13C, C15S

B1: Erv1^CXXS (Erv1C33S) (enzyme, S. cerevisiae, UniProt P27882 1-189, looked up)
chain: MKAIDKMTDNPPQEGLSGRKIIYDEDGKPCRSSNTLLDFQYVTGKISNGLKNLSSNGKLAGTGALTGEASELMPGSRTYRKVDPPDVEQLGRSSWTLLHSVAASYPAQPTDQQKGEMKQFLNIFSHIYPCNWCAKDFEKYIRENAPQVESREELGRWMCEAHNKVNKKLRKPKFDCNFWEKRWKDGWDE
notes: Erv1, S. cerevisiae, full length, second shuttle cysteine changed to serine
B2: Erv1^SXXC (Erv1C30S) (enzyme, S. cerevisiae, UniProt P27882 1-189, looked up)
chain: B1 chain with C30S, S33C
notes: Erv1, S. cerevisiae, full length, first shuttle cysteine changed to serine; Found as a tetramer (peak 1, yellow) and a dimer (peak 2, black, charge-transfer complex)

Columns and labels:
[1] = target: T1, Mia40^SPC, core domain Mia40c (amino acids 284-403) with the first cysteine of the CPC motif changed to serine (S. cerevisiae); assay: condition: only under reducing conditions (sample buffer with 1 mM DTT); mixed disulfide trapping, non-reducing SDS/PAGE and Western blot; single cysteine mutants pre-treated with 2 mM TCEP, exchanged to buffer A, incubated at 5 uM each for 20 min at room temperature (stopped with 2.5 mM AMS, or 1 mM DTT as reducing control), or 50 uM Mia40 and 5 uM Erv1 over 10 min (stopped with 20 mM IAM); detected with an antibody against Erv1; both purified
[2] = target: T2, Mia40^CPS, core domain Mia40c (amino acids 284-403) with the second cysteine of the CPC motif changed to serine (S. cerevisiae); assay: as above

| Binder | binding [1] | binding [2] |
| --- | --- | --- |
| B1 | no binding | no binding |
| B2 | no binding | no binding |
